Some entries share one result that the patent states for a list of compounds.
Target: recombinant human AMPK complex 1 (containing α1β1γ1) (Homo sapiens, UniProt Q13131+Q9Y478)
Assay: […] (in vitro AMPK activation assay)
Type: biochemical
Conditions: recombinant human AMPK complex 1 (α1β1γ1)
Experimental: Recombinant viruses were generated by cotransfection of AMPK/pBacPak9 clones with Baculogold baculovirus DNA (Pharmingen) in spodoptera frugiperda 21 cells according to the manufacturer's instructions. Each round of virus amplification was performed for 5 days in Grace's medium containing 10% serum. Virus that had been subjected to three rounds of amplification was used for all protein production procedures. To express the AMPK complex, sf21 cells were adapted to serum free medium (SF900 II, Invitrogen) by sequential dilution from serum containing stocks into SF900 II medium and maintained in shaker flasks at 90 rpm at 27° C. The recombinant AMPK enzyme complex was produced by triple infection, one recombinant virus for each of the subunits, in sf21 cells under serum free conditions. […] Cells were harvested by centrifugation at 10,000×g for 15 minutes after 72 hours of infection with viruses. The insect cell pellet from 2 liters of culture was resuspended in 50 ml lysis buffer (20 mM Tris-HCl, 50 mM NaCl, 50 mM NaF, 30 mM Na PPi, 0.25 M sucrose, 10 mM ZnCl2, 2 mM DTT, 0.4 mg/ml digitonin) and subjected to two cycles of freeze-thaw lysis in a dry-ice ethanol bath. Insoluble material was removed by centrifugation at 10,000×g and the supernatant was fractionated with use of polyethylene glycol (PEG).
The total in vitro AMPK activation assay volume is 50 μl in a 96-well plate. […] The reaction was initiated with addition of the enzyme. After 30-minute incubation at 30° C., the reaction was stopped by addition of 80 μl 1% H3PO4. Aliquots (100 μl) were transferred to 96-well MultiScreen plates (MAPHNOB50; Millipore Corp., Bedford, Mass., USA). The plate was washed three times with 1% H3PO4 followed by detection in a Top-count. The counts per minute from the basal activity (the reaction without activator) was subtracted from each well and the data were expressed as % maximum AMP activation followed by EC50 calculation.

By UniProt entry, the sequences of proteins in these tests, tags left out. Where a name states a change or a piece, a line headed by the entry shows the natural chain unless it says otherwise.
UniProt Q13131: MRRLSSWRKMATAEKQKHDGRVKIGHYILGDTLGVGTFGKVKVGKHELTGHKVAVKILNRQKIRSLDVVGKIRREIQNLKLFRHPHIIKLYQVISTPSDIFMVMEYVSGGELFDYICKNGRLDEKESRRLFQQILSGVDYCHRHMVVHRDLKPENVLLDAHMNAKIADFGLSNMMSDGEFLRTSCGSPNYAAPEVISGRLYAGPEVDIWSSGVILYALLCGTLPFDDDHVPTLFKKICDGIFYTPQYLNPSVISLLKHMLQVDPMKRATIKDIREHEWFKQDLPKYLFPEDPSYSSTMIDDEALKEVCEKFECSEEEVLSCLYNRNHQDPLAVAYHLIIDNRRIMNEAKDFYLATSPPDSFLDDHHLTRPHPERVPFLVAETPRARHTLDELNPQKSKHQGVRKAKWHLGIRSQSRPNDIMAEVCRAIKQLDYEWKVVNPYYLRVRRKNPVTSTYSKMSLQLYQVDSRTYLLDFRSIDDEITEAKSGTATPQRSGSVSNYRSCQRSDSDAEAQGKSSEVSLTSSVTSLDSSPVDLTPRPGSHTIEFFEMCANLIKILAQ
UniProt Q9Y478: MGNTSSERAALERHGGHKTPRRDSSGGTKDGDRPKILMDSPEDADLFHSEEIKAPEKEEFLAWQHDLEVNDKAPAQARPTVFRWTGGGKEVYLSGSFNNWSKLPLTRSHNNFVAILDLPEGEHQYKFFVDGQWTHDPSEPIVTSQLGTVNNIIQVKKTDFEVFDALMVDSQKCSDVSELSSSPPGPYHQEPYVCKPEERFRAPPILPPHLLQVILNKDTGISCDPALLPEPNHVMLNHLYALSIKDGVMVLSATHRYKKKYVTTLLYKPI

SMILES	EC50
Cc1ccc(Oc2nc3cc(C#Cc4ccc(-c5nnc(O)[nH]5)cc4)c(Cl)cc3[nH]2)cc1C(=O)O [Example 77, 5-{6-Chloro-5-[4-(5-hydroxy-4H-[1,2,4]triazol-3-yl)-phenylethynyl]-1H-benzoimidazol-2-yloxy}-2-methyl-benzoic acid]	< 10 µM
Cc1ccc(Oc2nc3cc(C#Cc4ccc(-c5nc[nH]n5)cc4)c(Cl)cc3[nH]2)cc1C(=O)O [Example 78, 5-{6-Chloro-5-[4-(1H-[1,2,4]triazol-3-yl)-phenylethynyl]-1H-benzoimidazol-2-yloxy}-2-methyl-benzoic acid]	< 10 µM
Cc1ccc(Oc2nc3cc(C#Cc4ccc(-c5nn[nH]n5)cc4)c(Cl)cc3[nH]2)cc1C(=O)O [Example 79, 5-{6-Chloro-5-[4-(2H-tetrazol-5-yl)-phenylethynyl]-1H-benzimidazol-2-yloxy}-2-methyl-benzoic acid]	< 10 µM
Cc1nc(-c2ccc(C#Cc3cc4nc(Oc5ccc(C)c(C(=O)O)c5)[nH]c4cc3Cl)cc2)no1 [Example 80, 5-{6-Chloro-5-[4-(5-methyl-[1,2,4]oxadiazol-3-yl)-phenylethynyl]-1H-benzoicmidazol-2-yloxy}-2-methyl-benzoic acid]	< 10 µM
Cc1ccc(Oc2nc3cc(C#Cc4ccc(-c5nc6ccccc6o5)cc4)c(Cl)cc3[nH]2)cc1C(=O)O [Example 81, 5-[5-(4-Benzooxazol-2-yl-phenylethynyl)-6-chloro-1H-benzoimidazol-2-yloxy]-2-methyl-benzoic acid]	< 10 µM
Cc1ccc(Oc2nc3cc(C#Cc4ccc(-c5cn[nH]c5)cc4)c(Cl)cc3[nH]2)cc1C(=O)O [Example 82, 5-{6-Chloro-5-[4-(1H-pyrazol-4-yl)-phenylethynyl]-1H-benzoimidazol-2-yloxy}-2-methyl-benzoic acid]	< 10 µM
Cc1ccc(Oc2nc3cc(C#Cc4ccc(-c5cscn5)cc4)c(Cl)cc3[nH]2)cc1C(=O)O [Example 83, 5-[6-Chloro-5-(4-thiazol-4-yl-phenylethynyl)-1H-benzoimidazol-2-yloxy]-2-methyl-benzoic acid]	< 10 µM
Cc1ccc(Oc2nc3cc(C#Cc4ccc(-c5nccs5)cc4)c(Cl)cc3[nH]2)cc1C(=O)O [Example 84, 5-[6-Chloro-5-(4-thiazol-2-yl-phenylethynyl)-1H-benzoimidazol-2-yloxy]-2-methyl-benzoic acid]	< 10 µM
Cc1ccc(Oc2nc3cc(C#Cc4ccc(-c5csnn5)cc4)c(Cl)cc3[nH]2)cc1C(=O)O [Example 85, 5-[6-Chloro-5-(4-[1,2,3]thiadiazol-4-yl-phenylethynyl)-1H-benzoimidazol-2-yloxy]-2-methyl-benzoic acid]	< 10 µM
Cc1ccc(Oc2nc3cc(C#Cc4ccc(-n5ccnc5)cc4)c(Cl)cc3[nH]2)cc1C(=O)O [Example 86, 5-[6-Chloro-5-(4-imidazol-1-yl-phenylethynyl)-1H-benzoimidazol-2-yloxy]-2-methyl-benzoic acid]	< 10 µM
Cc1ccc(Oc2nc3cc(C#Cc4ccncc4)c(Cl)cc3[nH]2)cc1C(=O)O [Example 87, 5-(6-Chloro-5-pyridin-4-ylethynyl-1H-benzoimidazol-2-yloxy)-2-methyl-benzoic acid]	< 10 µM
Cc1ccc(Oc2nc3cc(C#Cc4ccc(C(O)C5CC5)cc4)c(Cl)cc3[nH]2)cc1C(=O)O (centres unmarked) [Example 88, 5-{6-Chloro-5-[4-(cyclopropyl-hydroxy-methyl)-phenylethynyl]-1H-benzoimidazol-2-yloxy}-2-methyl-benzoic acid]	< 10 µM
Cc1ccc(Oc2nc3cc(C#Cc4ccc(C5(O)CC5)cc4)c(Cl)cc3[nH]2)cc1C(=O)O [Example 89, 5-{6-Chloro-5-[4-(1-hydroxy-cyclopropyl)-phenylethynyl]-1H-benzoimidazol-2-yloxy}-2-methyl-benzoic acid]	< 10 µM
Cc1ccc(Oc2nc3cc(C#Cc4ccc(-c5ccccn5)cc4)c(Cl)cc3[nH]2)cc1C(=O)O [Example 90, 5-[6-Chloro-5-(4-pyridin-2-yl-phenylethynyl)-1H-benzoimidazol-2-yloxy]-2-methyl-benzoic acid]	< 10 µM
COC(=O)c1ccc(C#Cc2cc3nc(Oc4ccc(C)c(C(=O)O)c4)[nH]c3cc2Cl)cc1 [Example 91, 5-[6-Chloro-5-(4-methoxycarbonyl-phenylethynyl)-1H-benzoimidazol-2-yloxy]-2-methyl-benzoic acid]	< 10 µM
Cc1ccc(Oc2nc3cc(C#Cc4ccc(C#N)cc4)c(Cl)cc3[nH]2)cc1C(=O)O [Example 92, 5-[6-Chloro-5-(4-cyano-phenylethynyl)-1H-benzoimidazol-2-yloxy]-2-methyl-benzoic acid]	< 10 µM
Cc1ccc(Oc2nc3cc(C#Cc4ccc(C(F)(F)F)cc4)c(Cl)cc3[nH]2)cc1C(=O)O [Example 93, 5-[6-Chloro-5-(4-trifluoromethyl-phenylethynyl)-1H-benzoimidazol-2-yloxy]-2-methyl benzoic acid]	< 10 µM
COc1ccc2cc(C#Cc3cc4nc(Oc5ccc(C)c(C(=O)O)c5)[nH]c4cc3Cl)ccc2c1 [Example 94, 5-[6-Chloro-5-(6-methoxy-naphthalen-2-ylethynyl)-1H-benzoimidazol-2-yloxy]-2-methyl-benzoic acid]	< 10 µM
Cc1ccc(Oc2nc3cc(C#Cc4ccc(OC(F)(F)F)cc4)c(Cl)cc3[nH]2)cc1C(=O)O [Example 95, 5-[6-Chloro-5-(4-trifluoromethoxy-phenylethynyl)-1H-benzoimidazol-2-yloxy]-2-methyl-benzoic acid]	< 10 µM
Cc1ccccc1C#Cc1cc2nc(Oc3ccc(C)c(C(=O)O)c3)[nH]c2cc1Cl [Example 96, 5-(6-Chloro-5-o-tolylethynyl-1H-benzoimidazol-2-yloxy)-2-methyl-benzoic acid]	< 10 µM
Cc1cccc(C#Cc2cc3nc(Oc4ccc(C)c(C(=O)O)c4)[nH]c3cc2Cl)c1 [Example 97, 5-(6-Chloro-5-m-tolylethynyl-1H-benzoimidazol-2-yloxy)-2-methyl-benzoic acid]	< 10 µM
COC(=O)c1cc(Oc2nc3cc(C#Cc4ccc(OC(F)(F)F)cc4)c(Cl)cc3[nH]2)ccc1C [Example 98, 5-[6-Chloro-5-(4-trifluoromethoxy-phenylethynyl)-1H-benzoimidazol-2-yloxy]-2-methyl-benzoic acid methyl ester]	< 10 µM
COC(=O)c1cc(Oc2nc3cc(C#Cc4ccccc4C)c(Cl)cc3[nH]2)ccc1C [Example 99, 5-(6-Chloro-5-o-tolylethynyl-1H-benzoimidazol-2-yloxy)-2-methyl-benzoic acid methyl ester]	< 10 µM
COC(=O)c1cc(Oc2nc3cc(C#Cc4cccc(C)c4)c(Cl)cc3[nH]2)ccc1C [Example 100, 5-(6-Chloro-5-m-tolylethynyl-1H-benzoimidazol-2-yloxy)-2-methyl-benzoic acid methyl ester]	< 10 µM
N#Cc1ccc(Oc2nc3cc(-c4ccc(-c5ccccc5)cc4)c(Cl)cc3[nH]2)cc1C#N [Example 101, 4-(5-Biphenyl-4-yl-6-chloro-1H-benzoimidazol-2-yloxy)-phthalonitrile]	< 10 µM
Cc1ccc(Oc2nc3cc(-c4ccc(-c5ccc(C(=O)O)cc5)cc4)c(Cl)cc3[nH]2)cc1C(=O)O [Example 102, 4′-[2-(3-Carboxy-4-methyl-phenoxy)-6-chloro-1H-benzoimidazol-5-yl]-biphenyl-4-carboxylic acid]	< 10 µM
